From the supplement of paper PMC10849652
The list shows a part of the results.

What was measured:
Assay in all cases: log2 fold change, soluble protein after heating vs DMSO (PISA); higher = thermal stabilisation; K562 cells, 10 uM, 30 min; active = over 0.2 and 3.5 SD of the protein, either way, in both replicates (recomputed)
[1] = compound: COC1=CC=C(C=C1)CN2C=CC3=C2C=C(C=C3)C(=O)NO
Summary of the method: (§1)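 K562 cells at 2×10^6 cells/mL were given 10 μM compound for 30 min. Aliquots then went through 3 min of heating across 48°C-58°C, were pooled, and were extracted in PBS with 0.5% NP-40 at 4°C, and the supernatant after 21,000xg for 90 min was quantified by TMTpro 16plex LC-MS/MS with channel sums equalised. Thermal stability relative to control samples, from duplicates, is given as log2 fold change.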

filanesib = compound: CON(C)C(=O)N1N=C(c2cc(F)ccc2F)S[C@@]1(CCCN)c1ccccc1 [filanesib]
Summary of the method: as §1

[2] = compound: COc1cc2nc(-c3cc(F)ccc3O)nc(N[C@@H]3CNC[C@H]3C(C)(C)O)c2cc1OC
Summary of the method: as §1

lapatinib = compound: CS(=O)(=O)CCNCc1ccc(-c2ccc3ncnc(Nc4ccc(OCc5cccc(F)c5)c(Cl)c4)c3c2)o1 [lapatinib]
Summary of the method: as §1

zotarolimus = compound: CO[C@H]1C[C@@H]2CC[C@@H](C)[C@@](O)(O2)C(=O)C(=O)N2CCCC[C@H]2C(=O)O[C@H]([C@H](C)C[C@@H]2CC[C@H](n3cnnn3)[C@H](OC)C2)CC(=O)[C@H](C)/C=C(\C)[C@@H](O)[C@@H](OC)C(=O)[C@H](C)C[C@H](C)/C=C/C=C/C=C/1C [zotarolimus]
Summary of the method: as §1

idasanutlin = compound: COc1cc(C(=O)O)ccc1NC(=O)[C@@H]1N[C@@H](CC(C)(C)C)[C@](C#N)(c2ccc(Cl)cc2F)[C@H]1c1cccc(Cl)c1F [idasanutlin]
Summary of the method: as §1

alisertib = compound: COc1cc(Nc2ncc3c(n2)-c2ccc(Cl)cc2C(c2c(F)cccc2OC)=NC3)ccc1C(=O)O [alisertib]
Summary of the method: as §1

gefitinib = compound: COc1cc2ncnc(Nc3ccc(F)c(Cl)c3)c2cc1OCCCN1CCOCC1 [gefitinib]
Summary of the method: as §1

[3] = compound: COc1cccc2cc(-c3nc([C@H]4CC[C@H](C(=O)O)CC4)n4ncnc(N)c34)[nH]c12
Summary of the method: as §1

pictilisib = compound: CS(=O)(=O)N1CCN(Cc2cc3nc(-c4cccc5[nH]ncc45)nc(N4CCOCC4)c3s2)CC1 [pictilisib]
Summary of the method: as §1

Measured: log2 fold change

PPP1R15A (UniProt O75807)
inactive: [1] -0.604 | filanesib 0.153 | [2] 0.305 | lapatinib -0.099

PPP1R10 (UniProt Q96QC0)
inactive: [1] -0.114 | filanesib 0.367 | zotarolimus -0.04 | idasanutlin 0.173 | alisertib -0.109 | [2] 0.072 | gefitinib -0.054 | [3] -0.066 | lapatinib 0.091 | pictilisib -0.04

PRDM2 (UniProt Q13029)
inactive: [1] -0.261 | zotarolimus -0.148 | idasanutlin 0.051 | alisertib -0.158 | [2] -0.009 | gefitinib -0.174 | [3] -0.136 | lapatinib 0.015 | pictilisib 0.038

PRKCA (UniProt P17252)
inactive: [1] -0.005 | filanesib -0.066 | zotarolimus 0.008 | idasanutlin 0.01 | alisertib -0.019 | [2] 0.057 | gefitinib -0.002 | [3] 0.017 | lapatinib -0.027 | pictilisib 0.055

PRPSAP2 (UniProt O60256)
active: pictilisib -0.233
inactive: [1] -0.168 | filanesib 0.084 | zotarolimus 0.029 | idasanutlin 0.012 | alisertib -0.078 | [2] 0.011 | gefitinib -0.022 | [3] 0.025 | lapatinib -0.011

PPP1R14A (UniProt Q96A00)
inactive: [1] 0.016 | filanesib 0.031 | zotarolimus -0.028 | idasanutlin -0.013 | alisertib -0.041 | [2] 0.039 | gefitinib 0.012 | [3] -0.079 | lapatinib -0.057 | pictilisib 0.017

PREP (UniProt P48147)
inactive: [1] 0.026 | filanesib -0.045 | zotarolimus 0.125 | idasanutlin -0.002 | alisertib 0.036 | [2] -0.003 | gefitinib 0.024 | [3] -0.066 | lapatinib 0.008 | pictilisib -0.085

PRKACB isoform 2 (UniProt P22694)
inactive: [1] -0.045 | filanesib -0.098 | zotarolimus 0.021 | idasanutlin -0.01 | alisertib -0.037 | [2] 0.124 | gefitinib 0.015 | [3] 0.03 | lapatinib -0.018 | pictilisib -0.018

PPTC7 (UniProt Q8NI37)
inactive: [1] -0.181 | pictilisib 0.237

2 neighbouring records out of the list so far:
PRKCA (UniProt P17252)
inactive: [1] -0.005 | filanesib -0.066 | zotarolimus 0.008 | idasanutlin 0.01 | alisertib -0.019 | [2] 0.057 | gefitinib -0.002 | [3] 0.017 | lapatinib -0.027 | pictilisib 0.055

PRPSAP2 (UniProt O60256)
active: pictilisib -0.233
inactive: [1] -0.168 | filanesib 0.084 | zotarolimus 0.029 | idasanutlin 0.012 | alisertib -0.078 | [2] 0.011 | gefitinib -0.022 | [3] 0.025 | lapatinib -0.011

The list continues.

PPP2R2A, A0A590UJJ1
inactive: idasanutlin -0.072 | pictilisib -0.016

PROSER3 (UniProt Q2NL68)
inactive: zotarolimus 0.12 | [2] -0.11 | gefitinib -0.053 | lapatinib 0.111

PROSER3, A0A2R8Y8D9
inactive: filanesib 0.014 | zotarolimus 0.013 | idasanutlin 0.24 | alisertib -0.14 | [3] 0.365

PROSER1 (UniProt Q86XN7)
inactive: filanesib 0.084 | [2] 0.046 | lapatinib 0.025

PRRG1 (UniProt O14668)
inactive: [1] -0.098 | alisertib -0.144 | [2] -0.028 | [3] 0.013 | lapatinib 0.092 | pictilisib 0.022

PRC1 (UniProt O43663)
inactive: filanesib -0.026 | zotarolimus 0.048 | idasanutlin -0.013

PPP1R21 (UniProt Q6ZMI0)
inactive: filanesib 0.045 | zotarolimus 0.019 | idasanutlin -0.005 | [2] 0.04 | gefitinib 0.011 | lapatinib -0.025 | pictilisib -0.091

PPP2R5B (UniProt Q15173)
inactive: idasanutlin -0.065 | alisertib 0.088 | [2] 0.148 | gefitinib -0.079 | [3] -0.058 | lapatinib 0.051 | pictilisib 0.01

PRH1 (UniProt P02810)
inactive: gefitinib 0.55

PPP2R3B (UniProt Q9Y5P8)
inactive: idasanutlin -0.336 | alisertib -0.036 | gefitinib 0.013 | [3] -0.149

PPP2R5C isoform 2 (UniProt Q13362)
inactive: [1] 0.159 | alisertib 0.005 | [3] -0.009

PRIMPOL (UniProt Q96LW4)
inactive: filanesib 0.147 | zotarolimus -0.021 | idasanutlin 0.055 | [2] 0.45 | lapatinib 0

PPP1R3D (UniProt O95685)
inactive: [1] -0.025 | zotarolimus -0.035 | alisertib -0.276 | gefitinib 0.045 | [3] 0.021 | pictilisib -0.299

PPP1R13L (UniProt Q8WUF5)
inactive: [2] 0.159 | gefitinib -0.033 | lapatinib 0.009 | pictilisib -0.034

PRKD2 (UniProt M0R346)
inactive: filanesib 0.038 | pictilisib 0.06

PPP1R12C (UniProt Q9BZL4)
inactive: filanesib 0.066 | alisertib 0.071 | [2] -0.237 | gefitinib 0.074 | [3] -0.009 | lapatinib 0.084 | pictilisib -0.228

PRF1 (UniProt P14222)
inactive: filanesib 0.056 | [2] 0.163 | lapatinib 0.009

PRNP (UniProt P04156)
inactive: filanesib 0.174 | alisertib -0.244 | [3] 0.003 | pictilisib -0.017

PRR12 (UniProt Q9ULL5)
inactive: filanesib -0.087

PRR4 (UniProt Q16378)
inactive: [1] 0.483 | idasanutlin 0.17 | alisertib 0.206 | gefitinib 0.157 | [3] -0.073

PPP2R1B (UniProt H0YDG7)
inactive: filanesib 0.244 | zotarolimus -0.06 | alisertib 0.143 | gefitinib 0.017 | [3] 0.178 | pictilisib 0.57

PPP1CC (UniProt F8W1A0)
inactive: alisertib 0.392 | [3] -0.589 | pictilisib -0.012

PRR16 (UniProt Q569H4)
inactive: pictilisib -0.299

PRMT6 (UniProt Q96LA8)
inactive: [1] -0.172 | zotarolimus -0.025 | idasanutlin -0.058 | alisertib -0.08 | [2] 0.093 | gefitinib 0.051 | [3] 0.042 | lapatinib -0.041 | pictilisib -0.019

PRELID3B (UniProt Q9Y3B1)
inactive: idasanutlin 0.695 | [2] -0.592 | lapatinib 0.251 | pictilisib 0.146

PRMT2 (UniProt P55345)
inactive: filanesib -0.03

PRKX (UniProt P51817)
inactive: alisertib 0.014 | [3] 0.098

PRG2 (UniProt P13727)
inactive: [1] -0.05 | zotarolimus -0.006 | alisertib -0.1 | [2] -0.083 | [3] -0.133 | lapatinib 0.005

PPP1R12B isoform 6 (UniProt O60237)
inactive: gefitinib 0.077

PRR14L (UniProt Q5THK1)
inactive: zotarolimus -0.083 | idasanutlin 0 | [2] 0.069 | gefitinib -0.065 | lapatinib 0.1 | pictilisib 0.103

PRKCSH isoform 2 (UniProt P14314)
inactive: [1] 0.045 | zotarolimus 0.016 | idasanutlin 0.125 | alisertib -0.057 | gefitinib -0.037 | [3] 0.044 | pictilisib -0.24

PRPF39 (UniProt Q86UA1)
inactive: zotarolimus 0.092 | [2] 0.038 | lapatinib -0.091
